Data from the supplement of paper PMC3334620.
Over roughly 33,000 sequences, “E-score (-0.5 to 0.5)” has its median near -0.0014; the highest 2% begin near 0.25. Some of the results follow.

Target: T1, Cad1 (UniProt P24813)
T1 sequence: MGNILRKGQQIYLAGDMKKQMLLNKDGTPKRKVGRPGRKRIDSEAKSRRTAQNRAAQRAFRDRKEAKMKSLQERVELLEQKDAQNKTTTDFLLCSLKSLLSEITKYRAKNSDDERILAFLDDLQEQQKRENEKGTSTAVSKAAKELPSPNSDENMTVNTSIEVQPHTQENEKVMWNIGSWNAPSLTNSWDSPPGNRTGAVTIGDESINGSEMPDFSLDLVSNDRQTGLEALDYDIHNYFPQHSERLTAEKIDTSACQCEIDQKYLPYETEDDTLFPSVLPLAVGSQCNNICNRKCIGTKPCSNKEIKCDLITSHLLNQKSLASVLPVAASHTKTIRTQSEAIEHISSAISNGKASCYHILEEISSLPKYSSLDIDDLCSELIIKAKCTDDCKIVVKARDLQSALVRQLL
Experiment: PBM E-score (8-mer binding enrichment) (E-score (-0.5 to 0.5)); higher = stronger / more preferred TF binding
Details: protein concentration: 100 nM; construct: GST-full length
Outline: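 GST-tagged yeast TFs (full-length or DNA-binding domain) were made by PURExpress in vitro transcription/translation and applied at about 100-200 nM to universal all-10-mer Agilent arrays. The arrays were made double-stranded by primer extension, on fresh or once-stripped slides. Bound protein was detected with fluorescent anti-GST, and scans were normalised with masliner. Each ungapped eight-base word, pooled with its reverse complement, received an E-score (modified Wilcoxon-Mann-Whitney statistic) from the Universal PBM Analysis Suite.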

Sequence | PBM E-score
TACCGACA | 0.105
TACGGAAA | 0.0558
CGTGCCCA | -0.0465
CACGGCAA | 0.0817
CACAGGGC | -0.0242
AACATCAG | 0.123
GGGTCTAC | -0.0723
GGATAGCA | 0.0379
CTTCCTAC | -0.384
CTGTTAGA | -0.066
GGTCAGGA | -0.0994
ATAGTGTG | 0.0676
GAACCAGC | 0.106
GCACCTGC | 0.0118
CTAACTTA | 0.0684
ACCTAAAT | 0.148
CACGGATC | 0.0559
CTGCACTA | 0.184
AGGCATAA | -0.0887
CAATATAG | 0.101
AAGTCCGT | -0.0429
GGTTTAAA | 0.053

Sequence | PBM E-score
ACGTCGAA | 0.00102
CAGAAAGC | -0.0553
ATTGTCTG | 0.196
ATGGTCGG | 0.0206
AGTACCGC | -0.0174
GTGCACAA | -0.0443
CCGACCAC | -0.0648
AGCGCAAT | 0.173
CTGAATTA | 0.122
CTGCTAGC | -0.0526
AAATTACT | 0.314
AACCAGAA | -0.103
GAAAGTGA | 0.0734
ACTAGGAC | 0.028
AGATCTTG | -0.0479
AACTCTGA | 0.0586
CGATACGA | 0.0601
AATAAGAT | 0.039
TAGCGTGA | -0.0296
TGGGTACA | 0.0709
ATCATTTG | 0.0608
GGGTAATA | 0.112

Sequence | PBM E-score
ACTTTTAT | 0.0287
CATTGAAG | -0.0438
TTAGCGAA | 0.0483
CGGCTCGC | 0.172
CCCTACTA | -0.0857
GATATGTA | 0.128
CAGCAAAC | 0.0826
ATCTACAC | 0.0982
CCCGATAG | -0.114
ACTTTGTA | 0.0495
CGGCCTAC | 0.103
CGTTATGC | 0.103
CTTACTGA | 0.208
CAATTCCA | -0.0425
ACAAAAAG | -0.0829
CCCCTACC | -0.179
CGATGCTC | -0.142
TAAACGGA | 0.246
TCACTGCA | 0.202
AGCCACAG | -0.13
ACAAGCAT | -0.0356
GAAGTAGA | 0.163

Five records picked at random from the list so far:
Sequence | PBM E-score
ATGGTCGG | 0.0206
CTTCCTAC | -0.384
ACTTTTAT | 0.0287
CACGGCAA | 0.0817
TGGGTACA | 0.0709

(further entries)

Sequence | PBM E-score
ATGCTGAC | 0.165
CAGCATTC | 0.0657
ACTTCTGG | -0.0955
ATCTGAAC | -0.017
AGTCGCTC | -0.0536
CAAGTCTG | -0.1
CCAACATA | 0.195
CCCTAAGC | -0.202
CGTGCGCA | -0.00954
CAGGGTGA | -0.155
CGATGCTA | 0.0257
CATGACAC | 0.221
CGTCTACA | -0.114
AACGGATG | -0.0154
TGGCCGAA | 0.0538
GTTCGGTA | 0.184
CTCTCATA | -0.0446
ACCAAATA | 0.207
CGCCACGA | -0.0919
GCCTGCAC | -0.11
